Publication PMC4599285
No constants are given. Whether binding was seen depends on the method and setting. In cells and extracts the contact can be indirect. Some binding calls cover weakened binding; strength is not graded here.

Protein sequences, listed by entry. Tags and fused reporters are not part of them.
UniProt P10415: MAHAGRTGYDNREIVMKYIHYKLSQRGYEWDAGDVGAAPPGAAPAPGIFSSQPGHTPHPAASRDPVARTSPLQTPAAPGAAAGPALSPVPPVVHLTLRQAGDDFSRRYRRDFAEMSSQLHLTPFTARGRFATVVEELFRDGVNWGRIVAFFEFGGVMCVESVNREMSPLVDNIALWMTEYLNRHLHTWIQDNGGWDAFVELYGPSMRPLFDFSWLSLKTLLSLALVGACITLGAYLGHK
UniProt P31749: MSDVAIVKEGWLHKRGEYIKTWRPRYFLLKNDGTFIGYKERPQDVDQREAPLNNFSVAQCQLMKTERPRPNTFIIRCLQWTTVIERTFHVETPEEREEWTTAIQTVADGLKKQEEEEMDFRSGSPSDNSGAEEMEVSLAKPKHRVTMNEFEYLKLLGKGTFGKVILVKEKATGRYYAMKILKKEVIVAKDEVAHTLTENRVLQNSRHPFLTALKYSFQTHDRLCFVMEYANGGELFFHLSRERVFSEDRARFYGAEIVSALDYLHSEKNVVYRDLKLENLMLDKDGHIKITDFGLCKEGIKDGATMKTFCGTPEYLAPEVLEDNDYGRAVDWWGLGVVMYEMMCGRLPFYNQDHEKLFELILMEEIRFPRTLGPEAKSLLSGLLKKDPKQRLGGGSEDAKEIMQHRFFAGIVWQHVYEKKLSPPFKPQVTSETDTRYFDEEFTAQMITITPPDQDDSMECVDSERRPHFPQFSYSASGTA

Target: T1, Apoptosis-stimulating protein of p53-2 (ASPP2), overexpressed from recombinant adenovirus-ASPP2 (UniProt Q13625)
T1 sequence: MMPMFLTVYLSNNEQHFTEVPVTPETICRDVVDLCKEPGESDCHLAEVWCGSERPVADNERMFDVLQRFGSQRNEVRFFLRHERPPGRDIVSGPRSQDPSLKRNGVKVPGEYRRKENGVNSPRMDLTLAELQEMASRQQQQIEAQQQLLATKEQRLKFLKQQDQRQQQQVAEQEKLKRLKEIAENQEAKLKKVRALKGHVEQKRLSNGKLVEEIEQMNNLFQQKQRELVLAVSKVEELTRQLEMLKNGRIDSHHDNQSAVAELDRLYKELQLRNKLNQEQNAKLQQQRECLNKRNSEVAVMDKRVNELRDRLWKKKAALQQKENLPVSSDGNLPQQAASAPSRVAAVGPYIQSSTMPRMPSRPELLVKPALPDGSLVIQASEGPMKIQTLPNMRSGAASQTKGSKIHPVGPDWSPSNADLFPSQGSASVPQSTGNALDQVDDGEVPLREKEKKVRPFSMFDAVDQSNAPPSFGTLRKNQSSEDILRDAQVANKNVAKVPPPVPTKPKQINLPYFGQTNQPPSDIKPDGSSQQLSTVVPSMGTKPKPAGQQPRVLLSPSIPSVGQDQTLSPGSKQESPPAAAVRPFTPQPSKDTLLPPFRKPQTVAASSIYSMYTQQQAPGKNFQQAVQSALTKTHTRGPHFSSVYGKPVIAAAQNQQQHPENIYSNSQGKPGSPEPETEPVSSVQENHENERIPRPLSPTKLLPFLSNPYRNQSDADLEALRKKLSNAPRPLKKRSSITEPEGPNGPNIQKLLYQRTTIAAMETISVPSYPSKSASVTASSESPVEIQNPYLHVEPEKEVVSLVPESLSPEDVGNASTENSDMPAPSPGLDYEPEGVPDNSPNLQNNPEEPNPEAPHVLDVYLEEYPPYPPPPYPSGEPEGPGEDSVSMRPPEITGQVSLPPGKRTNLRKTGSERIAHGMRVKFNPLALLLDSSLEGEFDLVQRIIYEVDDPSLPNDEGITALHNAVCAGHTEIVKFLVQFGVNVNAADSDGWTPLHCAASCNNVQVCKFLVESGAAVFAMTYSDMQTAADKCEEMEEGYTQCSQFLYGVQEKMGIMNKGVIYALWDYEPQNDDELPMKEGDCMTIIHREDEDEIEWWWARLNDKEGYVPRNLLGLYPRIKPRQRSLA
Assay: co-IP; isolated nuclei of rAd-ASPP2-infected HepG2 cells transfected with the indicated siRNAs, 24 and 48 hours; bait not stated

binding	Substance
binds	nuclear Bcl-2, endogenous in HepG2 (from UniProt P10415 1-239)
binds	nuclear p-AKT, endogenous in HepG2 (from UniProt P31749 1-480)
